In PubChem BioAssay AID1347423 (Functional Genomics Laboratory (NCATS/FGL), 2020):
The whole screen tested about 52,000 sequences, of which about 210 (0.4%) were called active.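 The calls were made as follows: active = gene whose silencing raises cell survival under the drug, median off-target-corrected z-score across its silencing RNAs 2 or more; inactive = the rest.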 This is one part of the list.

Experiment: Resistance to Poly (ADP-Ribose) Polymerase inhibitor: Gene Identification via Genome-wide siRNA Screen
Details: mouse BRCA2 R2336H ES cells, olaparib, CellTiter-Glo viability; active compounds read high
In short: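 Mouse BRCA2 R2336H ES cells were reverse-transfected with siRNA (20 nM final), treated at 48 h with 500 nM olaparib, and read by CellTiter-Glo after 72 h. Scores: MAD-based z per siRNA, median per gene, seed off-target correction.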

Sequence | z-score
CCUUCUAUGGCCUUCUGAATT against Hapln4 | inactive: -0.0112
GGUCAACAACGAAUCCUUUTT against Rho | inactive: 0.0505
GGAAUUAACAUCUUCUUACTT against Muc4 | inactive: 0.154
GGAUCCAGAACUAAAAAUCTT against Pcdhga2 | inactive: 0.011
GGUUUGCAUCUUCUUAUUCTT against Myd88 | inactive: 2.91
CCCUCUAGGUUCUUUAGCCTT against Sox7 | inactive: -0.00507
CCAUUGAGGUAAUGUUUGATT against 0610042C05Rik | inactive: 0.183
GGCAAGAAUAUGAAAAGCUTT against Hmmr | inactive: -0.352
GGUAUUCCAAUAACUGUACTT against Fip1l1 | inactive: -0.238
CCUCUACGAUGACUGGAUGTT against Sh3bp1 | inactive: 0.552
GGUUUUUGAACAAAGGAGATT against Slc11a2 | inactive: 0.0416
GGUGUGGUGGACUAAAUAUTT against 2310001H12Rik | inactive: -1.35
CCGUAGACUCGGUGAAGCUTT against Prosc | inactive: 0.147
GGAUGCCAGAAGAAUAUUCTT against Pnlip | inactive: 0.789
GGCGGAAGUGUUAGACAUGTT against Art3 | inactive: 1.04
GGCCAGAAUAUCAUCGUCATT against Rbks | inactive: -0.445
CCACGAGAUGGAAUAUCGCTT against Cyyr1 | inactive: 0.324
UCAGUGUGCUGUUUCUUUUTT against Olfr1359 | inactive: 0.64
GGACUUUGAGACUCAUCCGTT against 6330442E10Rik | inactive: -0.244
CCUAAAGCAUUGUUCAUAGTT against 5330420D20Rik | inactive: -0.303
CCGAUUCAGGUAUUGCACGTT against Prkra | inactive: -0.594
GGAAGCCCACUACAACAAUTT against Krt1-19 | inactive: 0.472

Sequence | z-score
GGAACAUCAGGUGCAUGUGTT against Pkd1 | inactive: 1.9
GGAGAAAGCACUCAAUUUGTT against Dlgap4 | inactive: 1.95
GGAAACAGCAAUCAAAUACTT against Dhx40 | inactive: -0.726
CCUGUGCCUCGUUUUAUUUTT against 4930430E16Rik | inactive: 0.737
GGCUACCAUGGACACAUCATT against Magea7 | inactive: -1.72
GCUGUCCAGACAAACACUATT against Tnfrsf7 | inactive: -1.36
GGAUCCGCAUCUACAAGCUTT against 1700016K19Rik | inactive: 0.716
GCAAUGUGUGGUAAGUAAATT against 6720487G11Rik | inactive: -1.21
GGGCAAACCAGUUAGCAGATT against Sca2 | inactive: 0.262
GCCAUUCGCACAUACCAGATT against Sec8l1 | inactive: -0.252
GAUGUUUGUUUUCAGUGCCTT against Olfr1330 | inactive: 0.366
GGAUCCUUCGCUUUUAUCGTT against Nox1 | inactive: 0.428
GCACUACUGCCCAUGAUUGTT against Agrn | inactive: -1.1
GGGAUUGAACUUAGGUUUGTT against 6330512M04Rik | inactive: -0.512
GGAGGAGAUGAUAAAGAUUTT against 3930401K13Rik | inactive: 1.45
GGAAAGGACCACCUAAGUUTT against Pde6g | active: -2.22
GGACUACCAUCGACCUUCATT against Nek2 | inactive: -0.858
GGCUAAAUCAAAGUUAUGATT against Speer4f | inactive: 0.859
GCUGCUACGUGUUCAAGGUTT against Ctss | inactive: -0.0462
GGAAUGCUGAAGUAAAAAATT against Olfr1259 | inactive: 0.47
GGACCUCCUCCCAAAGAUATT against Snrpb | inactive: -2.56
GCUCUACCGUUAAGUUAUUTT against Eif4el3 | inactive: -0.961

Sequence | z-score
GCCCUUUAUAUGACUUGAGTT against Kcnj2 | inactive: 0.721
GGGCAUUGGUGACUUUGAATT against BC030867 | inactive: -1.6
GGAGAUCAAGCCGCACAUGTT against Ccnd3 | inactive: 0.352
GCUACGUGAGAAUUCCGCCTT against Cutl1 | inactive: 0.298
GGAACUCUGCCAAAGCUGUTT against Dffa | inactive: 0.409
GCCUAUGCUCAACUUCUCGTT against Thap4 | inactive: -1.94
CCGUCUGAUAGCAAUCCGATT against Olfr632 | inactive: 0.895
GGCAGUAUCCUUAUGCAUGTT against Tebp | inactive: 0.693
GGAGAAGAGUCAAGAGCUCTT against 3110035E14Rik | inactive: -0.416
GGAGCUGGUGCUGAAGAACTT against 1810031K17Rik | inactive: -2.29
GGACGUACACAUUUACAAATT against 2310038H17Rik | inactive: -0.0445
GGGUCUGAAUGACAGCAUCTT against Cd53 | inactive: 0.466
CGAGCAGACCUCUAUACAGTT against Nit2 | inactive: -0.565
GCCUAACUGCCCAGAAUCUTT against Psd4 | inactive: 0.846
CGGAUGAAUUUGAUGGUCUTT against Ctbp2 | inactive: -0.0292
GGCGAGAGAGAUGAGUAAATT against 2010002N04Rik | inactive: -2.22
GGAAGUAAAGAGGAUCUCATT against AI427515 | inactive: -1.15
GCAGCAUUUUAUCAACCAGTT against C030046I01Rik | inactive: -0.792
GGCUUCACCAAAUGUGCAGTT against Mrpl50 | inactive: -0.674
CCUUCAAUGAGAGCUUUAGTT against Olfr1157 | inactive: -1.52
CGGUCCUUGAAAGAGAUGGTT against Prkcsh | inactive: -0.549
GGAGAGGUGUAAUGUAUUCTT against 4921513O04 | inactive: 0.0363

Retrieved one by one from the entries so far, three records:
Sequence | z-score
GGACGUACACAUUUACAAATT against 2310038H17Rik | inactive: -0.0445
GGAUGCCAGAAGAAUAUUCTT against Pnlip | inactive: 0.789
GCCUAACUGCCCAGAAUCUTT against Psd4 | inactive: 0.846
